Results are given in words; binding and its absence hold for the method and conditions named. In cells and extracts the contact can be indirect. Some entries that bind do so weakly or less than the wild type.

Chains of the proteins cited; added tags and fusions are not shown. Lines headed by an entry give the natural chain unless they say otherwise; changes in a name come on top.
UniProt Q64446: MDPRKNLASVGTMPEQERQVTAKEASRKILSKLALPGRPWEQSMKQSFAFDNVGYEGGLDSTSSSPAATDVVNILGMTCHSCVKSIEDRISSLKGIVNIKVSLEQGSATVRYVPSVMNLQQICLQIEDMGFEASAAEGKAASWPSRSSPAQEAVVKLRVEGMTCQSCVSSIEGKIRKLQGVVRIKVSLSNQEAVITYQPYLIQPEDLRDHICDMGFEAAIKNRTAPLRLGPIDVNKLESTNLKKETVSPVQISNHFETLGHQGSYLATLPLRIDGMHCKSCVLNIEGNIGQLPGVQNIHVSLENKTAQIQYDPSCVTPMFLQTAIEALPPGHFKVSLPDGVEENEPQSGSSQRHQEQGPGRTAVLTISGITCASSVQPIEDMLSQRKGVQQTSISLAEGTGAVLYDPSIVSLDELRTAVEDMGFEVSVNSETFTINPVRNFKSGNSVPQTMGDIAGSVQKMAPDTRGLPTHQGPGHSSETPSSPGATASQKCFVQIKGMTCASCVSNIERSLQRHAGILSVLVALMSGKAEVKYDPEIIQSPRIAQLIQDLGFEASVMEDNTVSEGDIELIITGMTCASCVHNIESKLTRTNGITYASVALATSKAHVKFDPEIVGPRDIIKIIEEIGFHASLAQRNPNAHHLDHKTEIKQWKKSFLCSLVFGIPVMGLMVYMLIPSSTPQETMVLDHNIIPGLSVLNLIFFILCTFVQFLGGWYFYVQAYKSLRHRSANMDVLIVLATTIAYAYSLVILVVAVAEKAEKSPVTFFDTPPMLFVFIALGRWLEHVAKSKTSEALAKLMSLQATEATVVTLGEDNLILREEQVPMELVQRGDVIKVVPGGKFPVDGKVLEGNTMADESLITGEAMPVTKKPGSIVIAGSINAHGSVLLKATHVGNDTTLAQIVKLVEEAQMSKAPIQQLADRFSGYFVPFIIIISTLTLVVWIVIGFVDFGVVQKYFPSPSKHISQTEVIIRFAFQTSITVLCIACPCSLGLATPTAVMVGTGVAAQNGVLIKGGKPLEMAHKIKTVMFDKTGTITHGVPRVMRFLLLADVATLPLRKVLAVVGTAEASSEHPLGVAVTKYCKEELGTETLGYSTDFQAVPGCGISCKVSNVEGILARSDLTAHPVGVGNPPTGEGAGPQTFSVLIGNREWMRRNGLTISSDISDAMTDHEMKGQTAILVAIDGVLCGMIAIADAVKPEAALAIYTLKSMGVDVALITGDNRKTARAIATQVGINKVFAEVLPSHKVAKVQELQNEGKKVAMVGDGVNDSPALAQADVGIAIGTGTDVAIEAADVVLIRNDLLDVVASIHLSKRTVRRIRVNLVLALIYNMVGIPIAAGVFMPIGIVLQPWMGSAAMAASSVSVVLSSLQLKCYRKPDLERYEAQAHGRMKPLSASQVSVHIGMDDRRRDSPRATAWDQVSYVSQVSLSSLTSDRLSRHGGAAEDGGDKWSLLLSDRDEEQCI

In publication PMC13092486 one finds binding data, which are given here for one molecule.

For the assay, the target named is transmembrane P1B ATPase (ATP7B) (mouse (endogenous in BV2)) (UniProt Q64446). The experiment in a line: co-IP; lysate of BV2 microglia cells treated with Aβ1-42; ATOX1 and ATP7B antibodies from Santacruz (sc-100557, sc-373963); which protein was precipitated not given.

B1: Antioxidant protein 1 (ATOX1) (protein, UniProt O08997 1-68)
chain: MPKHEFSVDMTCEGCAEAVSRVLNKLGGVEFNIDLPNKKVCIDSEHSSDTLLATLNKTGKAVSYLGPK
With B1, the binding result is given as “binds”.
